Article PMC8993510
No constants are given. Whether binding was seen depends on the method and setting. For some assays here: Binding calls can cover weak binding; strength is not graded here. For some assays here: Binding seen in cells or lysates may run through a third protein. For some assays here: Where a sequence is shown, tags or fusion partners need not be part of it.

What was measured:
CE-OsELF4b (rice) = test: split reporter; BiFC with pSPYNE and pSPYCE fusions, equal concentration mixtures co-transformed into rice protoplasts; fluorescence imaged by confocal microscopy
CE-OsELF4a (rice) = test: as above
CE-OsLUX (rice) = test: as above
CE-OsELF4c (rice) = test: as above
OsELF4a-GFP (rice) = test: co-IP; GFP and MYC fusions transiently co-expressed in rice protoplasts for 16 h; lysate on GFP-Nanoab-Agarose, washed four times; western blot with anti-Myc or anti-GFP
OsLUX-GFP (rice) = test: as above
[1] = biological target: OsLUX in pGBKT7 (rice (Nipponbare, japonica)); test: two-hybrid; yeast two-hybrid, pGBKT7 baits and pGADT7 preys co-transformed into Y187; growth on selective SD media (-Trp-Leu-His-Ade) with X-alpha-Gal
[2] = biological target: OsELF4a in pGBKT7 (rice (Nipponbare, japonica)); test: as above

B1: NE-OsELF3a (protein, UniProt Q9SNQ6 1-760)
chain: MATRGGGGGGGGKEAKGKVMGPLFPRLHVNDAAKGGGPRAPPRNKMALYEQFTVPSHRFSGGGGGGGVGGSPAHSTSAASQSQSQSQVYGRDSSLFQPFNVPSNRPGHSTEKINSDKINKKISGSRKELGMLSSQTKGMDIYASRSTAEAPQRRAENTIKSSSGKRLADDDEFMVPSVFNSRFPQYSTQENAGVQDQSTPLVAANPHKSPSTVSKSSTKCYNTVSKKLERIHVSDVKSRTPLKDKEMEAAQTSKNVEVEKSSSFHASKDMFESRHAKVYPKMDKTGIINDSDEPHGGNSGHQATSRNGGSMKFQNPPMRRNEISSNPSSENTDRHYNLPQGGIEETGTKRKRLLEQHDAEKSDDVSRLLEQHDAENIDDVSDSSVECITGWEISPDKIVGAIGTKHFWKARRAIMNQQRVFAVQVFELHKLVKVQKLIAASPHVLIESDPCLGNALLGSKNKLVEENLKAQPLLVATIDDVEPSLQQPEVSKENTEDSPPSPHDTGLGSGQRDQAATNGVSKSNRRATPVASDNKQNNWGVQLQPPQNQWLVPVMSPLEGLVYKPYSGPCPPAGSILAPFYANCTPLSLPSTAGDFMNSAYGVPMPHQPQHMGAPGPPSMPMNYFPPFSIPVMNPTAPAPVVEQGRHPSMPQPYGNFEQQSWISCNMSHPSGIWRFHASRDSEAQASSASSPFDRFQCSGSGPVSAFPTVSAQNNQPQPSYSSRDNQTNVIKVVPHNSRTASESAARIFRSIQMERQRDD
For B1, the binding (CE-OsELF4b (rice)) was “no binding”, the binding (CE-OsELF4a (rice)) was “binds” and the binding (CE-OsLUX (rice)) was “binds”. The binding (CE-OsELF4c (rice)) was “no binding”.

B2: OsELF3a-MYC (protein, UniProt Q9SNQ6 1-760)
chain: MATRGGGGGGGGKEAKGKVMGPLFPRLHVNDAAKGGGPRAPPRNKMALYEQFTVPSHRFSGGGGGGGVGGSPAHSTSAASQSQSQSQVYGRDSSLFQPFNVPSNRPGHSTEKINSDKINKKISGSRKELGMLSSQTKGMDIYASRSTAEAPQRRAENTIKSSSGKRLADDDEFMVPSVFNSRFPQYSTQENAGVQDQSTPLVAANPHKSPSTVSKSSTKCYNTVSKKLERIHVSDVKSRTPLKDKEMEAAQTSKNVEVEKSSSFHASKDMFESRHAKVYPKMDKTGIINDSDEPHGGNSGHQATSRNGGSMKFQNPPMRRNEISSNPSSENTDRHYNLPQGGIEETGTKRKRLLEQHDAEKSDDVSRLLEQHDAENIDDVSDSSVECITGWEISPDKIVGAIGTKHFWKARRAIMNQQRVFAVQVFELHKLVKVQKLIAASPHVLIESDPCLGNALLGSKNKLVEENLKAQPLLVATIDDVEPSLQQPEVSKENTEDSPPSPHDTGLGSGQRDQAATNGVSKSNRRATPVASDNKQNNWGVQLQPPQNQWLVPVMSPLEGLVYKPYSGPCPPAGSILAPFYANCTPLSLPSTAGDFMNSAYGVPMPHQPQHMGAPGPPSMPMNYFPPFSIPVMNPTAPAPVVEQGRHPSMPQPYGNFEQQSWISCNMSHPSGIWRFHASRDSEAQASSASSPFDRFQCSGSGPVSAFPTVSAQNNQPQPSYSSRDNQTNVIKVVPHNSRTASESAARIFRSIQMERQRDD
For B2, the binding (OsELF4a-GFP (rice)) was “binds” and the binding (OsLUX-GFP (rice)) was “binds”.

B3: OsELF3a in pGADT7 (protein, UniProt Q9SNQ6 1-760)
chain: MATRGGGGGGGGKEAKGKVMGPLFPRLHVNDAAKGGGPRAPPRNKMALYEQFTVPSHRFSGGGGGGGVGGSPAHSTSAASQSQSQSQVYGRDSSLFQPFNVPSNRPGHSTEKINSDKINKKISGSRKELGMLSSQTKGMDIYASRSTAEAPQRRAENTIKSSSGKRLADDDEFMVPSVFNSRFPQYSTQENAGVQDQSTPLVAANPHKSPSTVSKSSTKCYNTVSKKLERIHVSDVKSRTPLKDKEMEAAQTSKNVEVEKSSSFHASKDMFESRHAKVYPKMDKTGIINDSDEPHGGNSGHQATSRNGGSMKFQNPPMRRNEISSNPSSENTDRHYNLPQGGIEETGTKRKRLLEQHDAEKSDDVSRLLEQHDAENIDDVSDSSVECITGWEISPDKIVGAIGTKHFWKARRAIMNQQRVFAVQVFELHKLVKVQKLIAASPHVLIESDPCLGNALLGSKNKLVEENLKAQPLLVATIDDVEPSLQQPEVSKENTEDSPPSPHDTGLGSGQRDQAATNGVSKSNRRATPVASDNKQNNWGVQLQPPQNQWLVPVMSPLEGLVYKPYSGPCPPAGSILAPFYANCTPLSLPSTAGDFMNSAYGVPMPHQPQHMGAPGPPSMPMNYFPPFSIPVMNPTAPAPVVEQGRHPSMPQPYGNFEQQSWISCNMSHPSGIWRFHASRDSEAQASSASSPFDRFQCSGSGPVSAFPTVSAQNNQPQPSYSSRDNQTNVIKVVPHNSRTASESAARIFRSIQMERQRDD
For B3, the binding [1] was “binds” and the binding [2] was “binds”.
